Experimental findings from PubChem BioAssay AID488840 (Broad Institute, 2010) are described below.

The chains behind the UniProt entries cited, without tags or fusion partners. Where a name states a change or a piece, a line headed by the entry shows the natural chain unless it says otherwise.
UniProt O75164: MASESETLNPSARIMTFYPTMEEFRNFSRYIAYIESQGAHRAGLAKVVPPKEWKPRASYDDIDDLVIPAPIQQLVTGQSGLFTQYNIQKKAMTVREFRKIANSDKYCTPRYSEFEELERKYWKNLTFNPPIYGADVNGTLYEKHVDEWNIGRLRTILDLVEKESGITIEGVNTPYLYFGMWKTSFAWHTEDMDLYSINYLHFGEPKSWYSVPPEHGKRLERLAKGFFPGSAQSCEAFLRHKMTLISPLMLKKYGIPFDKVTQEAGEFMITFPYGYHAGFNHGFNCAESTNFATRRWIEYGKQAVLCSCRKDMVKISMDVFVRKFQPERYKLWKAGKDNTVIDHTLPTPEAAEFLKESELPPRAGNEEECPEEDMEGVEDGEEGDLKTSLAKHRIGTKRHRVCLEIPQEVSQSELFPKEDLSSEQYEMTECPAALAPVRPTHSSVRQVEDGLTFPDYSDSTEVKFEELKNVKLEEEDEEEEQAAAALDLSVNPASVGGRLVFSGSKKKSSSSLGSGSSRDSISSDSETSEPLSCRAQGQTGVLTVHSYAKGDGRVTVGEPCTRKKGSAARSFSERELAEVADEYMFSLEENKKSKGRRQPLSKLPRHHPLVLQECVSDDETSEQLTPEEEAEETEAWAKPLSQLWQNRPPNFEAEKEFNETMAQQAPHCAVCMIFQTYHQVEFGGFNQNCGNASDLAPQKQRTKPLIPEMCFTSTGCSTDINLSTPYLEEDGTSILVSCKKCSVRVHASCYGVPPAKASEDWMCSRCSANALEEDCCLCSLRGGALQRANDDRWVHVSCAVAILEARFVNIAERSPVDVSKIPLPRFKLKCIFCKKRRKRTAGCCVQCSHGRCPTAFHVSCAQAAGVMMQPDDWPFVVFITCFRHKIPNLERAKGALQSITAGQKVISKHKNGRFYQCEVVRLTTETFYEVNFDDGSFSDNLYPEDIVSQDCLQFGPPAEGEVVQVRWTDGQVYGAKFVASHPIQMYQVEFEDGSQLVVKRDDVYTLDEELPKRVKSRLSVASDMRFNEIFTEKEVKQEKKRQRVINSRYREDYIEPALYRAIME

Molecules are shown by their SMILES. Out of some 1,400 compounds screened, about 45 (3%) were called active.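 The calls were made as follows: active = half-maximal dose of signal decrease from fit no higher than ten times the top valid tested dose; inconclusive = fit invalid, or curve flat with 30 to 70% inhibition; inactive = the rest.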 This is one part of the list. Potency and affinity values are given separately.

The assay has as its target Lysine-specific demethylase 4A (Homo sapiens) (UniProt O75164). Nature of the assay: inhibition of JMJD2A H3K9me3 demethylation – biochemical, DELFIA europium, cherry-picked samples, selectivity assay for GASC-1 inhibitor project, dose response (AID 488840).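 Also: europium signal reports the dimethyl H3K9 product detected by antibody so inhibitors lower it; 0% = median of neutral control wells and -100% = median of positive control wells.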 Conditions: GST-JMJD2A(1-420) H3K9me3 demethylation; at 6 µM (top of the series) unless noted.
Take `Cc1cccc(NC(=O)CCN2CCN(C/C=C/c3ccccc3)CC2)c1`: the activity change, negative = inhibition was inactive: 2.01%. As for `CCNC(=S)NNC(=O)c1csc2c1CCC(C)C2` (configuration not stated), the activity change, negative = inhibition is inactive: 7.57%. Regarding `O=C(c1cccs1)N1CCN(S(=O)(=O)c2ccc(F)cc2)CC1`, the activity change, negative = inhibition is inactive: -5.6%. With `CCCC(=O)NC(c1cccs1)c1cc(Cl)c2cccnc2c1O` (configuration not stated) the figure was inactive: -6.38%; with `COc1ccc(CC(=O)Nc2ccc(S(=O)(=O)N(C)C)cc2)cc1OC`, inactive: 5.99%. For the compound `O=C(CSc1nnc(CNC(=O)c2ccco2)o1)NC1CCCC1`, the activity change, negative = inhibition was inactive: 6.13%. Turning to `Cc1nc(C(C)NC(=O)CCc2nnc(CCCc3ccccc3)o2)c(C)s1` (configuration not stated), the activity change, negative = inhibition is inactive: -0.411%. With `CCOC(=O)c1sc(=S)n(-c2ccc(Cl)cc2)c1SC` the figure was inactive: -0.619%; with `N#Cc1ccc(OCC(=O)Nc2ccccc2NS(=O)(=O)c2cccs2)cc1`, inactive: -0.213%; with `CCOc1ccc(CN(C)CC(=O)Nc2cc(C)c(C)cc2[N+](=O)[O-])cc1`, inactive: -2.71%. With `COc1ccc(NC(=S)NCCCn2ccnc2)cc1` the figure was inactive: 3.84%; with `O=C(OCCCOC(=O)c1ccc(Br)o1)c1ccc(Br)o1`, inactive: 3.48%. For the compound `Cc1ccc(-c2noc(C3CCN(S(C)(=O)=O)CC3)n2)o1`, the activity change, negative = inhibition is inactive: -5.49%.

For the compound `O=c1c2cnn(-c3ccccc3)c2nc(-c2cccs2)n1-c1ccc(Cl)cc1`, the activity change, negative = inhibition is inactive: 8.94%. Turning to `Cc1nnc(-c2cccc(Br)c2)c2cn(-c3ccccc3Cl)nc12`, the activity change, negative = inhibition was inactive: 3.49%. As to `COc1ccc(Nc2ncnc3sc(-c4ccccc4)cc23)cc1OC`, the activity change, negative = inhibition was inactive: -1.17%. With `CCC(=O)Nc1cc2c(cc1C(=O)CC)OCCO2` the figure was inactive: -2.03%; with `CCOc1cc(NC(=S)NCCOC)c(OCC)cc1NC(=O)c1cccs1`, inactive: 1.19%. Turning to `CC(=O)N/C(=C\c1ccccc1)C(=O)OCC(=O)NC1CCCC1`, the activity change, negative = inhibition is inactive: 1.36%. Consider `O=C(O)c1ccc2c(c1)C(=O)N(CCC1=CCCCC1)C2=O`, for which the activity change, negative = inhibition is inactive: -1.94%. For the compound `C#CCOCCOCCOCCNc1nc(N2CCN(C(=O)C([C@@H](C)O)n3cc([C@@H](N)CCCCN)nn3)CC2)nc(N2CCN(C(=O)[C@H](CC(N)=O)n3cc([C@@H](N)C(C)C)nn3)CC2)n1` (some centres not stated), the activity change, negative = inhibition is inactive: 0.979%.

`Cc1ccc2nc(-c3cccc(NS(C)(=O)=O)c3)cc(-c3ccccc3)c2c1`: the activity change, negative = inhibition is inactive: 1.92%. Consider `C=CCNC(=S)Nc1ccc(N2CCOCC2)c(S(=O)(=O)Nc2ccccc2Cl)c1`, for which the activity change, negative = inhibition is inactive: 4.84%. As for `Cc1c(NC(=O)CCN2C(=O)c3ccccc3C2=O)c(=O)n(-c2ccccc2)n1C`, the activity change, negative = inhibition is inactive: 4.24%. `CC1CCN(S(=O)(=O)c2ccc3[nH]c(=O)[nH]c3c2)CC1`: the activity change, negative = inhibition is inactive: -2.98%.

Turning to `CC1=NN(C(N)=S)C(=O)C1N=Nc1c(C)cc(C)cc1C` (configuration not stated), the activity change, negative = inhibition is inactive: 3.02%. For `CN1CCN(c2nc3ccccn3c(=O)c2/C=C(\C#N)S(=O)(=O)c2ccc(Cl)cc2)CC1`, the activity change, negative = inhibition was inactive: -2.4%.
